Test results taken from publication doi:10.1101/2022.03.08.483512.

What was measured:
[1] = molecular target: human GABAA receptor α1 subunit, wild type (human); assay: affinity purification with mass spectrometry
[2] = molecular target: human GABAA receptor α1 subunit carrying the A322D variant (human); assay: affinity purification with mass spectrometry

binding [1]: binds | binding [2]: binds
B1: SerpinH1 (protein, UniProt P50454 19-418)
chain: AEVKKPAAAAAPGTAEKLSPKAATLAERSAGLAFSLYQAMAKDQAVENILVSPVVVASSLGLVSLGGKATTASQAKAVLSAEQLRDEEVHAGLGELLRSLSNSTARNVTWKLGSRLYGPSSVSFADDFVRSSKQHYNCEHSKINFRDKRSALQSINEWAAQTTDGKLPEVTKDVERTDGALLVNAMFFKPHWDEKFHHKMVDNRGFMVTRSYTVGVMMMHRTGLYNYYDDEKEKLQIVEMPLAHKLSSLIILMPHHVEPLERLEKLLTKEQLKIWMGKMQKKAVAISLPKGVVEVTHDLQKHLAGLGLTEAIDKNKADLSRMSGKKDLYLASVFHATAFELDTDGNPFDQDIYGREELRSPKLFYADHPFIFLVRDTQSGSLLFIGRLVRPKGDKMRDEL

binding [1]: binds | binding [2]: binds
B2: reticulocalbin 2 (protein, UniProt Q14257 23-317)
chain: GKAEELHYPLGERRSDYDREALLGVQEDVDEYVKLGHEEQQKRLQAIIKKIDLDSDGFLTESELSSWIQMSFKHYAMQEAKQQFVEYDKNSDDTVTWDEYNIQMYDRVIDFDENTALDDAEEESFRKLHLKDKKRFEKANQDSGPGLSLEEFIAFEHPEEVDYMTEFVIQEALEEHDKNGDGFVSLEEFLGDYRWDPTANEDPEWILVEKDRFVNDYDKDNDGRLDPQELLPWVVPNNQGIAQEEALHLIDEMDLNGDKKLSEEEILENPDLFLTSEATDYGRQLHDDYFYHDEL

binding [1]: binds | binding [2]: binds
B3: RPN1 (protein, UniProt P04843 24-607)
chain: ASSEAPPLINEDVKRTVDLSSHLAKVTAEVVLAHLGGGSTSRATSFLLALEPELEARLAHLGVQVKGEDEEENNLEVRETKIKGKSGRFFTVKLPVALDPGAKISVIVETVYTHVLHPYPTQITQSEKQFVVFEGNHYFYSPYPTKTQTMRVKLASRNVESYTKLGNPTRSEDLLDYGPFRDVPAYSQDTFKVHYENNSPFLTITSMTRVIEVSHWGNIAVEENVDLKHTGAVLKGPFSRYDYQRQPDSGISSIRSFKTILPAAAQDVYYRDEIGNVSTSHLLILDDSVEMEIRPRFPLFGGWKTHYIVGYNLPSYEYLYNLGDQYALKMRFVDHVFDEQVIDSLTVKIILPEGAKNIEIDSPYEISRAPDELHYTYLDTFGRPVIVAYKKNLVEQHIQDIVVHYTFNKVLMLQEPLLVVAAFYILFFTVIIYVRLDFSITKDPAAEARMKVACITEQVLTLVNKRIGLYRHFDETVNRYKQSRDISTLNSGKKSLETEHKALTSEIALLQSRLKTEGSDLCDRVSEMQKLDAQVKELVLKSAVEAERLVAGKLKKDTYIENEKLISGKRQELVTKIDHILDAL

Results are given in words; binding and its absence hold for the method and conditions named. In cells and extracts the contact can be indirect. Here binding means that the protein was enriched with, or labelled near, the bait; the list need not be complete. Each block holds one binder with its values, some of them ahead of it.
